In PMC509278:
No constants are given. Whether binding was seen depends on the method and setting. Some binding calls cover weakened binding; strength is not graded here.

Amino acid sequences for entries named in this document (tags omitted).
UniProt Q03330: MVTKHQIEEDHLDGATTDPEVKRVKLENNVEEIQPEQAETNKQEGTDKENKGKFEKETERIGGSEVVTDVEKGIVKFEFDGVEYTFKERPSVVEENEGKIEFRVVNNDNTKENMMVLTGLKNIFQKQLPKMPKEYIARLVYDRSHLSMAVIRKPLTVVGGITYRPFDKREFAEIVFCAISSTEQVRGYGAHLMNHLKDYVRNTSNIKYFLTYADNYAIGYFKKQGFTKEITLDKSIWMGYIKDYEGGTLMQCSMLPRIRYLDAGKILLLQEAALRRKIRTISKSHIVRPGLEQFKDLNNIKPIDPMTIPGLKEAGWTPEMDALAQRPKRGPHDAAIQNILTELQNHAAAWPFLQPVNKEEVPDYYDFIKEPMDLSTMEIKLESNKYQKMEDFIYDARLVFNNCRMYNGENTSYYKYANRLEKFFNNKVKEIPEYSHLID

Molecular target: Gcn5p (yeast (endogenous in strain UCC1111)) (UniProt Q03330)
Test: SEC; Superose 6 HR 10/30 in DN(350) of HatB3.1 partially purified from yeast nuclear extract (DEAE, CM flow-through, Mono Q, 75% ammonium sulfate); peak fractions blotted with anti-Gcn5p, anti-Ada2p and anti-Ada3p

binding: binds
B1: Ada3p (protein, UniProt P32494 1-702)
chain: MPRHGRRGKLPKGEKLPKKEGGDNTPSKLLSSMLKTLDLTFERDIGMLNGKSVRSIPNKKTLLELQSQLDSLNEILGTIARGDQETIEALRKIRDSKNEKQANDEKQETSNADGQHESSTATEETNIIDKGVQSPPKPPPSNEISGTIENDVESIKQAADNMAKEEINEDKDLQVHRDQPREKRPFDSETENRATENENTQRPDNKKQKIDVDKMENDPTVKNPKSEFVVSQTLPRAAAALGLFNEEGLESTGEDFLKKKYNVASYPTNDLKDLLPGELPDMDFSHPKPTNQIQFNTFLAFVENFFKDLSDDNLKFLKMKYIIPDSLQFDKTYDPEVNPFIIPKLGPLYTDVWFKDENDKNSAYKKPSPYSNDASTILPKKSANELDDNALESGSISCGPLLSRLLSAVLKDDNDKSELQSSKIIRDGGLPRTGGEDDIQSFRNNNNDTVDMTLSQENGPSVQTPDNDIDEEASFQAKLAENKGSNGGTTSTLPQQIGWITNGINLDYPTFEERLKRELKYVGIYMNLPKDENNPNSDDPDWVTGREDDEISAELRELQGTLKQVTKKNQKRKAQLIPLVERQLAWQEYSSILEDLDKQIDQAYVKRIRVPKKRKKHHTAASNNVNTGTTSQIAQQKAANSSLKSLLDKRQRWINKIGPLFDKPEIMKRIPNESVFKDMDQEEDEDEADVFAQNTNKDVELN
